For assay [1], the target named is T1, HA-tagged VHH_(mASC) (JT-01-A09), expressed in HEK 293T cells (alpaca).
T1 sequence (VHH): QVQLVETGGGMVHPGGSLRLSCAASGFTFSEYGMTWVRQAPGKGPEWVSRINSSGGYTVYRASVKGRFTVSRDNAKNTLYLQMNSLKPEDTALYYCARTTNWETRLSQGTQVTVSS
In words: co-IP; LUMIER assay: lysates of co-transfected HEK 293T cells; HA-tagged VHH captured on plates coated with anti-HA.11, 4°C, 3 h; 50 mM Hepes pH 7.9, 150 mM NaCl, 2 mM EDTA, 0.5% Triton X-100, 5% glycerol; co-precipitated Renilla luciferase activity normalised to input.

Amino acid sequences for entries named in this document (tags omitted).
UniProt Q9ULZ3: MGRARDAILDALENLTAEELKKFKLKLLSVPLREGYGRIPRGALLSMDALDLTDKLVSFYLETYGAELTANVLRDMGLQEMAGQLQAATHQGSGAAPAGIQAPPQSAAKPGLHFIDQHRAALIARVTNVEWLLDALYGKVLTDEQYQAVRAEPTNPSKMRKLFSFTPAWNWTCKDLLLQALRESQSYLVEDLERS

The target of assay [2] is T2, recombinant murine ASC as an eGFP fusion (mouse) (UniProt Q9EPB4).
T2 sequence: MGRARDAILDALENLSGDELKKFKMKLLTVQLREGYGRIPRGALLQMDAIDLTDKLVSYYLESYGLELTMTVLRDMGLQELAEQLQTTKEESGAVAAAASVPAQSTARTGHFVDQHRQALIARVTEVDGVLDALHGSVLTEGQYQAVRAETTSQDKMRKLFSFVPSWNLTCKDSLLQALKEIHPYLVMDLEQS
In words: ELISA; recombinant eGFP-mASC or eGFP alone coated at 1 µg/ml; HA-tagged VHHs at 100 nM; detected with anti-HA-HRP and TMB, absorbance at 450 nm; both purified. On the technique in general: An ELISA detects its analyte on a solid surface through an enzyme-linked reagent.

Results are given in words; binding and its absence hold for the method and conditions named. For some of these results: In cells and extracts the contact can be indirect. Some binding calls cover weakened binding; strength is not graded here. Tags and fused reporters may be left off the sequences shown.

For “human ASC fused to Renilla luciferase (from UniProt Q9ULZ3 1-195)”, the binding result in assay [1] is reported as “no binding”.

B1: CARD of mouse ASC fused to Renilla luciferase (domain or fragment, UniProt Q9EPB4 105-193)
chain: STARTGHFVDQHRQALIARVTEVDGVLDALHGSVLTEGQYQAVRAETTSQDKMRKLFSFVPSWNLTCKDSLLQALKEIHPYLVMDLEQS
Take B1: the binding result in assay [1] is “no binding”.

B2: pyrin domain of mouse ASC fused to Renilla luciferase (domain or fragment, UniProt Q9EPB4 1-91)
chain: MGRARDAILDALENLSGDELKKFKMKLLTVQLREGYGRIPRGALLQMDAIDLTDKLVSYYLESYGLELTMTVLRDMGLQELAEQLQTTKEE
Turning to B2, the binding entry in assay [1] is recorded as “binds”.

B3: recombinant HA-tagged VHH_(mASC) (JT-01-A09) (VHH)
VHH: T1 sequence (VHH)
Take B3: the binding result in assay [2] is on record as “binds”.

Source of the values: paper PMC9174887.
